Results are given in words; binding and its absence hold for the method and conditions named. Binding calls can cover weak binding; strength is not graded here. Where a sequence is shown, tags or fusion partners need not be part of it.
Target: T1, biotinylated VGL4(203–256) (b-1) (not stated (mouse and human identical in this stretch)) (UniProt Q80V24)
T1 sequence (peptide, biotin (position not stated)): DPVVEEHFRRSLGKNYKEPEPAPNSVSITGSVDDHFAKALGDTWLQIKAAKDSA
Assay: pull-down; competition pull-down: biotinylated VGL4 on streptavidin magnetic beads; GST-hTEAD1 (1 µM) preincubated 30 min with peptide (50 and 200 µM), then 2.5 h with beads at room temperature; 300 mM NaCl, 25 mM Tris pH 8.8, 2 mM DTT, 2% glycerol; SDS-PAGE, Coomassie; both purified

Substance: GST-hTEAD1(209–426) (human) (domain or fragment)
- binding: binds
